Measurements from paper PMC9262604.
No constants are given. Whether binding was seen depends on the method and setting. Binding seen in cells or lysates may run through a third protein. Some binding calls cover weakened binding; strength is not graded here.

By UniProt entry, the sequences of proteins in these tests, tags left out.
UniProt Q14258: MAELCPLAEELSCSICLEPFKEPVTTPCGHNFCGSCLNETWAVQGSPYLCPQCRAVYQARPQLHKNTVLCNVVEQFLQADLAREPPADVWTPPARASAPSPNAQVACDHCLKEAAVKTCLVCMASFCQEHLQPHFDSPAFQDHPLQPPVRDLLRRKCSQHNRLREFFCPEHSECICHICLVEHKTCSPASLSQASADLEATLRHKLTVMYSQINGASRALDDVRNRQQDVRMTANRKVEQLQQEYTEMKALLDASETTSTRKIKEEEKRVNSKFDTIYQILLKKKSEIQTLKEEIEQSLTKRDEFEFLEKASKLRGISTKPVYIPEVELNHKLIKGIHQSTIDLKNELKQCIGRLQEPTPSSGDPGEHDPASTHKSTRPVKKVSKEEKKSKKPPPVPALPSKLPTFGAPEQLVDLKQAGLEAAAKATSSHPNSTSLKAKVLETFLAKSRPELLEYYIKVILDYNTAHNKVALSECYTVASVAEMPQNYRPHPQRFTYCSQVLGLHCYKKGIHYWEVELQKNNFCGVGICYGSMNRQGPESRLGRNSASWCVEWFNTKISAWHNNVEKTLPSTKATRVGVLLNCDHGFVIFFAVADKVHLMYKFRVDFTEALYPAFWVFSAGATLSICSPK
UniProt Q7Z2W4: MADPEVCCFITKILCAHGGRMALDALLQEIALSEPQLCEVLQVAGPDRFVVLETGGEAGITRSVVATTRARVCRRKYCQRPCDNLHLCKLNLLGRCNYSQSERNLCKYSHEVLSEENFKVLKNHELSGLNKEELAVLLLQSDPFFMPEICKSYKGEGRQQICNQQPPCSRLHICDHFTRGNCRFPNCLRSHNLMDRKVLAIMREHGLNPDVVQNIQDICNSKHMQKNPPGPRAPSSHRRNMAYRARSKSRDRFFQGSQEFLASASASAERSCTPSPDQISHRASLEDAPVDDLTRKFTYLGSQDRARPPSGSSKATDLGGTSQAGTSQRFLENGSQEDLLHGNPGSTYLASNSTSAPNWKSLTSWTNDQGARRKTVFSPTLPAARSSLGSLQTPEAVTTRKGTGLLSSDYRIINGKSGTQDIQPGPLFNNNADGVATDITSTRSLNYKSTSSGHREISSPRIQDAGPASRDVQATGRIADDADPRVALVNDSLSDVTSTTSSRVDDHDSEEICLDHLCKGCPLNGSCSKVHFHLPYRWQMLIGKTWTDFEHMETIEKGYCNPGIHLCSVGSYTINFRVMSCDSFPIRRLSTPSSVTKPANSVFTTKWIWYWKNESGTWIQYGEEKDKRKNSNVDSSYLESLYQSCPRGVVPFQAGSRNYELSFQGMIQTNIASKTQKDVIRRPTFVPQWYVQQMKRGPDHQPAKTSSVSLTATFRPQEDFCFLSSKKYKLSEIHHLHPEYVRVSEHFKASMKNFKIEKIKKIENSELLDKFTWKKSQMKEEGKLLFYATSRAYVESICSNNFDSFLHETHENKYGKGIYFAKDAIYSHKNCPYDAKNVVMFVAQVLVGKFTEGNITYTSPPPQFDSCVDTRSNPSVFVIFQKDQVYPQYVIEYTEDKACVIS

Molecular target: T7-tagged TRIM25 (human) (UniProt Q14258)
Assay: co-IP

zinc-finger antiviral protein (ZAP), untagged (from UniProt Q7Z2W4 1-902)
binding: binds
